Test results reported in PMC6336344.
No constants are given. Whether binding was seen depends on the method and setting. Binding seen in cells or lysates may run through a third protein. Some results given as binding are weak or reduced against the parent protein; the word gives no strength. For part of these data: Tags and fused reporters may be left off the sequences shown.

Amino acid sequences for entries named in this document (tags omitted).
UniProt Q9LR78: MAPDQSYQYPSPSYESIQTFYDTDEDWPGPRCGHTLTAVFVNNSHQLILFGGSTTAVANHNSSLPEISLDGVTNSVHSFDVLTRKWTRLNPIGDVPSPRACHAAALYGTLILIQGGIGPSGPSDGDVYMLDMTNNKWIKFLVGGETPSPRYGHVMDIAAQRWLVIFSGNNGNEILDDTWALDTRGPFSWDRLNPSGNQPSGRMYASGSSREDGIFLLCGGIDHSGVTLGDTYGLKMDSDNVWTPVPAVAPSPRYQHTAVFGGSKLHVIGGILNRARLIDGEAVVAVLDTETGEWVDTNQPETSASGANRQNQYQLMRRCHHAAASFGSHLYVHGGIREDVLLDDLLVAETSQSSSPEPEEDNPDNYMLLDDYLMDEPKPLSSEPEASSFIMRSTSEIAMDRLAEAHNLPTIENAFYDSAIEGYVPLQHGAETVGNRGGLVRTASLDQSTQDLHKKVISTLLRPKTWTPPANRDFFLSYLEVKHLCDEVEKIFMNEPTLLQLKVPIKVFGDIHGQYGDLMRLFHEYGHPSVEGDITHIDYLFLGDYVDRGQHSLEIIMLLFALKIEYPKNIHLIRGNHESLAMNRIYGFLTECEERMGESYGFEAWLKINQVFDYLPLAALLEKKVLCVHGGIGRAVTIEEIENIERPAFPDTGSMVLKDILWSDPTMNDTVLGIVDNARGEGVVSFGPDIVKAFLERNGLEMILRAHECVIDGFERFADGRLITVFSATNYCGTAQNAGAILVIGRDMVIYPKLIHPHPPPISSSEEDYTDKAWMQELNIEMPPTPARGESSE

Experiments:
[1] = target: BSK3-HA (BRASSINOSTEROID-… KINASE 3, HA-tagged, expressed from BSK3pro:BSK3-HA in Arabidopsis) (Arabidopsis thaliana) (UniProt Q8W4L3); test: co-IP; transgenic Arabidopsis co-expressing BSK3-HA and a GFP/EYFP fusion; 300-870 μg microsomal proteins from 7 or 8-day-old light-grown seedlings; IP with anti-HA antibody and protein G agarose, blot with anti-GFP; also done after 1 μM BL for 30 minutes (BSK3-HA/BRI1-GFP reduced, the others not affected)
[2] = target: BSK3-YFP^N (Arabidopsis thaliana) (UniProt Q8W4L3); test: split reporter; BiFC with halves of YFP (pSPYNE-35S, pSPYCE-35S), transient co-expression in Nicotiana benthamiana leaves, confocal microscopy of leaf epidermal cells
[3] = target: GST-BSK3 (Arabidopsis thaliana) (UniProt Q8W4L3); test: pull-down; GST fusion proteins (wheat germ TNT, purified) on glutathione sepharose 4B beads, incubated 2 hours with HA- or FLAG-tagged TNT proteins; PBS pH 7.4, 1 mM dithiothreitol, 0.1 to 1% igepal CA-630, 4 °C; 4 washes; blots with anti-GST, anti-HA, anti-FLAG; only the target purified
[4] = target: GST-BRI1-KD (BRI1 kinase domain) (Arabidopsis thaliana) (UniProt O22476); test: as above
[5] = target: GST-BSU1 (BRI1 SUPPRESSOR 1 phosphatase) (Arabidopsis thaliana) (UniProt Q9LR78); test: as above
[6] = target: T1, GST-BIN2 (Arabidopsis thaliana) (UniProt Q39011); test: as above
T1 sequence: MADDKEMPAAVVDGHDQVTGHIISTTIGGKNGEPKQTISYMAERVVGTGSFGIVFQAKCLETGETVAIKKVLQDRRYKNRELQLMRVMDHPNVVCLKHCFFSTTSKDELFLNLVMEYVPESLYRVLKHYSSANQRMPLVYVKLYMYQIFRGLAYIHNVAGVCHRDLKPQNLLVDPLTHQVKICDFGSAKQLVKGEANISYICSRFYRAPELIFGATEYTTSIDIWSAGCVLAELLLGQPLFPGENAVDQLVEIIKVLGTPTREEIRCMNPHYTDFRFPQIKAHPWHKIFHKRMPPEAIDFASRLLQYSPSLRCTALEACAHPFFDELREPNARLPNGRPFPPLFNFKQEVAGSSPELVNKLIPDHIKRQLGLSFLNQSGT

Substance	binding [1]	binding [2]	other results
BRI1-YFP^C (from UniProt O22476 24-1196) (receptor)		binds	
BSK1-EYFP (BRASSINOSTEROID-… KINASE 1, EYFP fusion) (from UniProt Q944A7 1-512)	binds		
BSK1-FLAG (from UniProt Q944A7 1-512)			binding [3]: binds
BSK1-YFP^C (from UniProt Q944A7 1-512)		binds	
BSK3-HA (in vitro translated) (from UniProt Q8W4L3 1-489)			binding [4]: binds; binding [3]: binds; binding [5]: binds; binding [6]: binds
BSU1-YFP^C (from UniProt Q9LR78 1-793) (enzyme)		binds	

Second part, led by results:

binding [1]	binding [2]	Substance	other results
binds		BRI1-GFP (BRASSINOSTEROID … 1 receptor kinase, GFP fusion) (from UniProt O22476 24-1196)	
binds		BSK3-GFP (expressed from BSK3pro:BSK3-GFP in Arabidopsis) (from UniProt Q8W4L3 1-489)	
	binds	BSK3-YFP^C (from UniProt Q8W4L3 1-489)	
